# In the supplement of paper PMC12067093, “Discovery and optimisation of a covalent ligand for TRIM25 and its application to targeted protein ubiquitination” (Chemical Science, 2025):
# Chains of the proteins cited; added tags and fusions are not shown. Lines headed by an entry give the natural chain unless they say otherwise; changes in a name come on top.
# UniProt P48059, whole entry, looked up: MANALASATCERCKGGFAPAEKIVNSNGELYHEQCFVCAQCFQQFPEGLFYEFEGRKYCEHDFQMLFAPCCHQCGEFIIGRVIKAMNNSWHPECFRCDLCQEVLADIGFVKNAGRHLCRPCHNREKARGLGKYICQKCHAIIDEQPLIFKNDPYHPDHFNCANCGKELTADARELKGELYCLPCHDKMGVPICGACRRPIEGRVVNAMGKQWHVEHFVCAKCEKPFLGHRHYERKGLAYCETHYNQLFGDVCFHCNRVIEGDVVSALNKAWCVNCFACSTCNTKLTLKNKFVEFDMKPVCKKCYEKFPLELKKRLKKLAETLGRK
# UniProt Q3ZCW2: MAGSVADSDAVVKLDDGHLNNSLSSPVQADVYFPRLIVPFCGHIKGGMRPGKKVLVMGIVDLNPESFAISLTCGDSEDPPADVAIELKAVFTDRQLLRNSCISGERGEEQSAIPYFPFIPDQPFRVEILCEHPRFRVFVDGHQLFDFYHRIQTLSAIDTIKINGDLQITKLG
# UniProt P02545: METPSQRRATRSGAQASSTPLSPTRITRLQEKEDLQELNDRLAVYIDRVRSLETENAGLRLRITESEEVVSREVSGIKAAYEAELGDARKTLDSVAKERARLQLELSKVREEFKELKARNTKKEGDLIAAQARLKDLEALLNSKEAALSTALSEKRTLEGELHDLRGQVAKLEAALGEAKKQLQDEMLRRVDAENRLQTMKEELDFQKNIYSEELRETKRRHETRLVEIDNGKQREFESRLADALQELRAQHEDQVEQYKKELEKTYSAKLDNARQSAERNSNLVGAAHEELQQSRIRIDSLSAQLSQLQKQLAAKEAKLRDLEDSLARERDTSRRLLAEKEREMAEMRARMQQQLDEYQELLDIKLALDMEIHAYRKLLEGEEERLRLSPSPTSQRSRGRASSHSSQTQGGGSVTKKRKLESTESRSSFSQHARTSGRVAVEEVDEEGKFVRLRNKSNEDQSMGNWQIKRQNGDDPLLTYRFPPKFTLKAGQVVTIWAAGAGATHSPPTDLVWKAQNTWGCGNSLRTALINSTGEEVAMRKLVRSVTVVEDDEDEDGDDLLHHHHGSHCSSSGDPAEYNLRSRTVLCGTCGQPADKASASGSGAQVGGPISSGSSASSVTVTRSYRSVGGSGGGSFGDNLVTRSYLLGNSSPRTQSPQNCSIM
# UniProt Q8TDW0: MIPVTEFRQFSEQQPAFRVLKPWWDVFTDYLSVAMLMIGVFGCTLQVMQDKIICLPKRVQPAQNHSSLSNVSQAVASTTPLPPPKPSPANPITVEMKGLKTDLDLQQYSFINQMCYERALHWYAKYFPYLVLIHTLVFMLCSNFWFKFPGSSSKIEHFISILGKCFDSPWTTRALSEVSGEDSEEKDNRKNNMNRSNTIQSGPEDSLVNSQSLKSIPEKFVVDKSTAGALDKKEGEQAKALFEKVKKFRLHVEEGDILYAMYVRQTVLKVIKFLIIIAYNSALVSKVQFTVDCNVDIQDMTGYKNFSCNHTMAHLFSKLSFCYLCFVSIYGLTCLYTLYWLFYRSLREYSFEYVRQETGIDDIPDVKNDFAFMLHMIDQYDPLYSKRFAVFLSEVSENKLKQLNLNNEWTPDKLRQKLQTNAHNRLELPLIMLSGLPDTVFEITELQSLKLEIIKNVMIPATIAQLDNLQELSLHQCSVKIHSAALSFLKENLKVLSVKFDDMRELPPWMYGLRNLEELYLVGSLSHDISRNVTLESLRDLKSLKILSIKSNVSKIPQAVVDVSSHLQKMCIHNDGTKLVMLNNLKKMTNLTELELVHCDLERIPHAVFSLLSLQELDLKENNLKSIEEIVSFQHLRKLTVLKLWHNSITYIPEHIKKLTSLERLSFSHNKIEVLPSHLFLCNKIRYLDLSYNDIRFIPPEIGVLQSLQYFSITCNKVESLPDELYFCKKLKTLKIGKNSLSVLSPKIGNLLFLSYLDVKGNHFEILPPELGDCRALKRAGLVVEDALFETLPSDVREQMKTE
# UniProt P50851: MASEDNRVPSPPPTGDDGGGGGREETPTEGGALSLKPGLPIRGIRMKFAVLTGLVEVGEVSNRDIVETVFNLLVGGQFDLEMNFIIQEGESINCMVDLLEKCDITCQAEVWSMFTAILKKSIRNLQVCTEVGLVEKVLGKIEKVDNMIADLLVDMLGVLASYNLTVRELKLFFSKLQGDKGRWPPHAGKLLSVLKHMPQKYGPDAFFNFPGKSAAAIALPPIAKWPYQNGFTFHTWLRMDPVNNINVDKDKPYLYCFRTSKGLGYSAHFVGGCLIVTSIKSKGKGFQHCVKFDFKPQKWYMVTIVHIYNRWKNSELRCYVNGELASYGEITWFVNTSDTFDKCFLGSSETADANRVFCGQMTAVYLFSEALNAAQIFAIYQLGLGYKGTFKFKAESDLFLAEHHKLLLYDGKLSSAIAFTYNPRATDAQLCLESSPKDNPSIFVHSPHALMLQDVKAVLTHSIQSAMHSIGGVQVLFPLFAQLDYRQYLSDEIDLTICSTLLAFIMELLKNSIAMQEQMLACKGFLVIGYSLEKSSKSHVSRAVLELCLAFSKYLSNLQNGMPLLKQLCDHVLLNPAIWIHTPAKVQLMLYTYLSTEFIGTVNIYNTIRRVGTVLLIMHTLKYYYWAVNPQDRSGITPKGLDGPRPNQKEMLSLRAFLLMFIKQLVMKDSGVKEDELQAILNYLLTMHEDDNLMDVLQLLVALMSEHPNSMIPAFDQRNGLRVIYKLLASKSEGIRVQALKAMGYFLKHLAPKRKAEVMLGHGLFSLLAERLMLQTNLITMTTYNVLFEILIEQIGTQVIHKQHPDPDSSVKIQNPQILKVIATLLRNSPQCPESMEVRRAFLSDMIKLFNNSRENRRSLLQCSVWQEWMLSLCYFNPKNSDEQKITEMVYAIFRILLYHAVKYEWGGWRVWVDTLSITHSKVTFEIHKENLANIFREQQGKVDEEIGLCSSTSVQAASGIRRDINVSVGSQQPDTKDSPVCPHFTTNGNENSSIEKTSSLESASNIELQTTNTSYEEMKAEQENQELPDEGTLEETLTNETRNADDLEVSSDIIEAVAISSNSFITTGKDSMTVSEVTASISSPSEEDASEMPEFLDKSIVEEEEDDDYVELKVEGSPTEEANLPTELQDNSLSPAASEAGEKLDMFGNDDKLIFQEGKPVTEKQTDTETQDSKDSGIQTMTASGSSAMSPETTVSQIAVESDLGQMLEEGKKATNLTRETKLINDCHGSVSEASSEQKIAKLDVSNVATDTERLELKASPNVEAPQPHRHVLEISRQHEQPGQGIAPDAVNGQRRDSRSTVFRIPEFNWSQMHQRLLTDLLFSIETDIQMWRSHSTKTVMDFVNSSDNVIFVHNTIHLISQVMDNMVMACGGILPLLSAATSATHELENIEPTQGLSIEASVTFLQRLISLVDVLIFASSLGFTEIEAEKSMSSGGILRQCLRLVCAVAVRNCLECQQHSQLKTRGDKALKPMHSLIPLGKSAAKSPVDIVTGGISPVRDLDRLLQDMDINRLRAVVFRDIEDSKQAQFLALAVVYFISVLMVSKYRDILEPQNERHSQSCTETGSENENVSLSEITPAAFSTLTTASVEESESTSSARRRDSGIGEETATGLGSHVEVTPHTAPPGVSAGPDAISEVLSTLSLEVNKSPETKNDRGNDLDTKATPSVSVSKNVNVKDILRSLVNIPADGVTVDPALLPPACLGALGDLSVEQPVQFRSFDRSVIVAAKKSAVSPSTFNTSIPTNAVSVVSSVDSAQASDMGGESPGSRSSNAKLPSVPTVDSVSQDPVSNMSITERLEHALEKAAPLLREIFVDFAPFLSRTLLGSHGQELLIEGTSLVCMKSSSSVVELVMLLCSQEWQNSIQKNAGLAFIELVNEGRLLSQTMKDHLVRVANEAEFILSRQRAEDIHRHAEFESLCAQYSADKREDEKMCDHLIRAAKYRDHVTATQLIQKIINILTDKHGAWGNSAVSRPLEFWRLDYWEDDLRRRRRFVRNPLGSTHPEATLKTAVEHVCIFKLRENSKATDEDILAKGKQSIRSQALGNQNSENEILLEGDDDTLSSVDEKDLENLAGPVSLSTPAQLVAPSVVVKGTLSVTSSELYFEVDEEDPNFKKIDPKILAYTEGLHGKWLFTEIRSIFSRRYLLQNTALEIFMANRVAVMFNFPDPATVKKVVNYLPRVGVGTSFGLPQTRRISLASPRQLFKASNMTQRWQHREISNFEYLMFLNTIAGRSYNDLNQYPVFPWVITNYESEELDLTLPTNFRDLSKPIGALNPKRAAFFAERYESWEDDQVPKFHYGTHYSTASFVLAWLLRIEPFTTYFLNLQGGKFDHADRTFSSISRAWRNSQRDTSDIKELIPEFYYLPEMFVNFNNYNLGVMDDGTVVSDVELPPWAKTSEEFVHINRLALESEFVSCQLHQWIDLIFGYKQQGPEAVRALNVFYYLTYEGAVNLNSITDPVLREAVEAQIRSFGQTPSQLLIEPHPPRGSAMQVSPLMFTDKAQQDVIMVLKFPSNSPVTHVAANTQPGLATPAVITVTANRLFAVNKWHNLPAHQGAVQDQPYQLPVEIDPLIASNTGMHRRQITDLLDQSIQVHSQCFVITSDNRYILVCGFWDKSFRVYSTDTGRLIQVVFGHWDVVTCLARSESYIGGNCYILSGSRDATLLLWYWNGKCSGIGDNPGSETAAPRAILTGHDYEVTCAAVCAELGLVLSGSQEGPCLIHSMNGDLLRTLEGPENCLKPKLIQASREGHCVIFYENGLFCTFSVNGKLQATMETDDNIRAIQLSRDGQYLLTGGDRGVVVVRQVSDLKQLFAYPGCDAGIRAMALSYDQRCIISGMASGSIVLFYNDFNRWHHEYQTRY
# UniProt Q9UIQ6, whole entry: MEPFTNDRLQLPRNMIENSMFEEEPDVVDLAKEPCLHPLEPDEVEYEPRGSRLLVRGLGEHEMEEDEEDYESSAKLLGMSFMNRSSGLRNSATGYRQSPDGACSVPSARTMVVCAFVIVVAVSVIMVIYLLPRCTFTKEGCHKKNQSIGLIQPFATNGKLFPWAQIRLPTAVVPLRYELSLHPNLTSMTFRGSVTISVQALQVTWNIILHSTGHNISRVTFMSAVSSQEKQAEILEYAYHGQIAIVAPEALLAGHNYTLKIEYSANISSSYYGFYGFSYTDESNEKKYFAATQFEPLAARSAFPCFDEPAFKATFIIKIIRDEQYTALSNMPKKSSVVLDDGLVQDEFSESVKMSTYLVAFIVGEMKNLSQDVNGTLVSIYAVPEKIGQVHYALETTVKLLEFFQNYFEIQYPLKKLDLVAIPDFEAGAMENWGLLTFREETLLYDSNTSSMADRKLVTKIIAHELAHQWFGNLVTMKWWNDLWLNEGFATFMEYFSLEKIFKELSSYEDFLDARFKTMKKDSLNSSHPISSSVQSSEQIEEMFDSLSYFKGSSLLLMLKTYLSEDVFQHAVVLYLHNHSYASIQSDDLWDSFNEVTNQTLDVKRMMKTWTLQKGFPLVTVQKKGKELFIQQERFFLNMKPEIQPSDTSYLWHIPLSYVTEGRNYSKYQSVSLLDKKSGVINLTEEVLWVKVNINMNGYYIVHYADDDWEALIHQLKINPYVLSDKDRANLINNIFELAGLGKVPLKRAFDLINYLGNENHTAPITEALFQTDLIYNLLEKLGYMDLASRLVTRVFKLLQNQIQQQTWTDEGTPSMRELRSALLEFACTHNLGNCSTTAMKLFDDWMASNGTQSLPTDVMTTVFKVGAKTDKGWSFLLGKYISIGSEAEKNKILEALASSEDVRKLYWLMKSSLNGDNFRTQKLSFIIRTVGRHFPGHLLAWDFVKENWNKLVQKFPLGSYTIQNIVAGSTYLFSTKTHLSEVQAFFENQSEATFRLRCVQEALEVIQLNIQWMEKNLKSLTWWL
# UniProt Q9Y546: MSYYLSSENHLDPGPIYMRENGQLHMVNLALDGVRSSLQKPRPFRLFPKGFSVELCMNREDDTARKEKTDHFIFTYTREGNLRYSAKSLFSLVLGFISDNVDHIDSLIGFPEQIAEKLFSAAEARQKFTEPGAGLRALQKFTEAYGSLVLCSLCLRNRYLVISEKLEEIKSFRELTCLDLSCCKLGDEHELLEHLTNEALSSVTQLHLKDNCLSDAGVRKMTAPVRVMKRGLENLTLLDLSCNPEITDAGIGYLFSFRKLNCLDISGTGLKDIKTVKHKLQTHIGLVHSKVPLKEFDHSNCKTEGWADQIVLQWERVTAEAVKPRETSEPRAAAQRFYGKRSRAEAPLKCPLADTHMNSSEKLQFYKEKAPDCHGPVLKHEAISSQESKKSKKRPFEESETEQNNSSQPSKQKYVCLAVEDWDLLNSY
# UniProt Q96GY3: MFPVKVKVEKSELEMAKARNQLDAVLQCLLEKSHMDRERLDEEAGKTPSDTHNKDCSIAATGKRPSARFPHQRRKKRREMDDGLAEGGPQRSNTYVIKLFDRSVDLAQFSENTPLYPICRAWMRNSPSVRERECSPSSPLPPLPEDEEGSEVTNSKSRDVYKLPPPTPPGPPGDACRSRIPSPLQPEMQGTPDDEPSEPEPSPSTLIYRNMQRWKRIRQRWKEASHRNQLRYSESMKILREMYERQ
# The other results are listed elsewhere or left out.
# Compound: CC1Cc2ccccc2N1C(=O)C1CCCN(C1)C(=O)CCl (mixture of isomers) [TRIM25 ligand 11 (diastereomer mixture)]
# Test: probe-labelled cysteine peptide fold change vs DMSO (competition) (log2 fold change); higher = less target engagement (more negative = stronger competition)
# Conditions: 10 µM; THP-1; incubation time: 4 h
# 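Note: competitive chemoproteomic profiling in live THP-1 cells with an iodoacetamide desthiobiotin (IA-DTB) probe, comparing probe-labelled peptide intensities in compound-treated cells against DMSO-treated controls.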
row,Target,probe-labelled cysteine peptide fold change
1,LGALS1_P09382_3_ACGLVASNLNLKPGECLR (UniProt P09382),-0.0986
2,LIN9_Q5TKA1_435_RCEEEAQEIVR (UniProt Q5TKA1),-0.0311
3,LPXN_O60711_237_VLTAMNQTWHPEHFFCSHCGEVFGAEGFHEK (UniProt O60711),0.0815
4,LIMS1_P48059_240+252+255_GLAYCETHYNQLFGDVCFHCNR (UniProt P48059),-0.0958
5,LPXN_O60711_358_FHPEHFVCAFCLTQLSK (UniProt O60711),-0.157
6,LEMD3_Q9Y2U8_547_LAQLAGDHECGSSSQR (UniProt Q9Y2U8),0.0851
7,LGALS3BP_Q08380_561_STSSFPCPAGHFNGFR (UniProt Q08380),-0.133
8,LGALSL_Q3ZCW2_130_VEILCEHPR (UniProt Q3ZCW2),0.275
9,LRCH4_O75427_213_LDFSCNR (UniProt O75427),-0.0947
10,LMNA_P02545_591_TVLCGTCGQPADK (UniProt P02545),-0.0274
11,LGALS1_P09382_61_FNAHGDANTIVCNSKDGGAWGTEQR (UniProt P09382),-0.522
12,LEMD2_Q8NC56_253_LLPVDCER (UniProt Q8NC56),0.0793
13,LRCH3_Q96II8_740_IGVPQEQLCLPLHILEEK (UniProt Q96II8),-0.28
14,LIMA1_Q9UHB6_316_ENVPPGPEVCITHQEGEK (UniProt Q9UHB6),-0.0648
15,LRRC8C_Q8TDW0_728_VESLPDELYFCK (UniProt Q8TDW0),0.407
16,LRR1_Q96L50_220_KLPATIGDLIHLQELNLNDNHLESFSVALCHSTLQK (UniProt Q96L50),0.291
17,LGALS9_O00182_316_GQSFSVWILCEAHCLK (UniProt O00182),-0.0393
18,LRBA_P50851_2820_QLFAYPGCDAGIR (UniProt P50851),0.149
19,LGALSL_Q3ZCW2_41_LIVPFCGHIK (UniProt Q3ZCW2),-0.0785

row,Target,probe-labelled cysteine peptide fold change
1,LONP1_P36776_909_AGVTCIVLPAENK (UniProt P36776),-0.00716
2,LNPEP_Q9UIQ6_35_EPCLHPLEPDEVEYEPR (UniProt Q9UIQ6),0.0621
3,LPXN_O60711_178_VIHALGQSWHPEHFVCTHCK (UniProt O60711),0.0349
4,LRRC42_Q9Y546_212_DNCLSDAGVR (UniProt Q9Y546),0.0519
5,LRWD1_Q9UFC0_281_LEPLHFLQCHSK (UniProt Q9UFC0),-0.121
6,LEMD3_Q9Y2U8_814_CSDNDGIVHIAVDK (UniProt Q9Y2U8),-0.067
7,LRCH4_O75427_134_NQLSLLPPYICQLPLR (UniProt O75427),0.321
8,LSM7_Q9UK45_85_GTSVVLICPQDGMEAIPNPFIQQQDA (UniProt Q9UK45),0.176
9,LIN37_Q96GY3_56_DCSIAATGK (UniProt Q96GY3),-0.0274
10,LIN9_Q5TKA1_176_CSSAFFEEER (UniProt Q5TKA1),-0.103
11,LONP1_P36776_682_ALCGLDESK (UniProt P36776),-0.112
12,LRRC8C_Q8TDW0_774_GNHFEILPPELGDCR (UniProt Q8TDW0),0.256
13,LRCH1_Q9Y2L9_251_VLVIPICFR (UniProt Q9Y2L9),-0.0102
14,LRRC58_Q96CX6_197_EIPPELGNLPSLNYLVLCDNK (UniProt Q96CX6),-0.195
15,LPCAT1_Q8NF37_211_WPQIMIFPEGTCTNR (UniProt Q8NF37),-0.0136
16,LIMS1_P48059_164_NDPYHPDHFNCANCGK (UniProt P48059),-0.0737
17,LIG3_P49916_929_AADETLCQTK (UniProt P49916),0.0879
18,LRRC47_Q8N1G4_60_LFTLPLLHYLEVSGCGSLR (UniProt Q8N1G4),-0.101

# Same assay, conditions: 50 µM; THP-1; incubation time: 4 h
row,Target,probe-labelled cysteine peptide fold change
1,LGALS1_P09382_3_ACGLVASNLNLKPGECLR (UniProt P09382),-0.246
2,LIN9_Q5TKA1_435_RCEEEAQEIVR (UniProt Q5TKA1),-0.145
3,LPXN_O60711_237_VLTAMNQTWHPEHFFCSHCGEVFGAEGFHEK (UniProt O60711),0.126
4,LIMS1_P48059_240+252+255_GLAYCETHYNQLFGDVCFHCNR (UniProt P48059),-0.0831
5,LPXN_O60711_358_FHPEHFVCAFCLTQLSK (UniProt O60711),-0.0688
6,LEMD3_Q9Y2U8_547_LAQLAGDHECGSSSQR (UniProt Q9Y2U8),-0.131
7,LGALS3BP_Q08380_561_STSSFPCPAGHFNGFR (UniProt Q08380),-0.0375
8,LGALSL_Q3ZCW2_130_VEILCEHPR (UniProt Q3ZCW2),0.0761
9,LRCH4_O75427_213_LDFSCNR (UniProt O75427),0.116
10,LMNA_P02545_591_TVLCGTCGQPADK (UniProt P02545),-0.15
11,LGALS1_P09382_61_FNAHGDANTIVCNSKDGGAWGTEQR (UniProt P09382),-0.174
12,LEMD2_Q8NC56_253_LLPVDCER (UniProt Q8NC56),0.082
13,LRCH3_Q96II8_740_IGVPQEQLCLPLHILEEK (UniProt Q96II8),-0.246
14,LIMA1_Q9UHB6_316_ENVPPGPEVCITHQEGEK (UniProt Q9UHB6),-0.075
15,LRRC8C_Q8TDW0_728_VESLPDELYFCK (UniProt Q8TDW0),-0.143
16,LRR1_Q96L50_220_KLPATIGDLIHLQELNLNDNHLESFSVALCHSTLQK (UniProt Q96L50),-0.176
17,LGALS9_O00182_316_GQSFSVWILCEAHCLK (UniProt O00182),0.245
18,LRBA_P50851_2820_QLFAYPGCDAGIR (UniProt P50851),0.144
19,LGALSL_Q3ZCW2_41_LIVPFCGHIK (UniProt Q3ZCW2),0.0213

row,Target,probe-labelled cysteine peptide fold change
1,LONP1_P36776_909_AGVTCIVLPAENK (UniProt P36776),-0.0907
2,LNPEP_Q9UIQ6_35_EPCLHPLEPDEVEYEPR (UniProt Q9UIQ6),-0.106
3,LPXN_O60711_178_VIHALGQSWHPEHFVCTHCK (UniProt O60711),-0.142
4,LRRC42_Q9Y546_212_DNCLSDAGVR (UniProt Q9Y546),0.013
5,LRWD1_Q9UFC0_281_LEPLHFLQCHSK (UniProt Q9UFC0),-0.0558
6,LEMD3_Q9Y2U8_814_CSDNDGIVHIAVDK (UniProt Q9Y2U8),0.127
7,LRCH4_O75427_134_NQLSLLPPYICQLPLR (UniProt O75427),0.234
8,LSM7_Q9UK45_85_GTSVVLICPQDGMEAIPNPFIQQQDA (UniProt Q9UK45),0.28
9,LIN37_Q96GY3_56_DCSIAATGK (UniProt Q96GY3),-0.192
10,LIN9_Q5TKA1_176_CSSAFFEEER (UniProt Q5TKA1),-0.126
11,LONP1_P36776_682_ALCGLDESK (UniProt P36776),-0.104
12,LRRC8C_Q8TDW0_774_GNHFEILPPELGDCR (UniProt Q8TDW0),0.0636
13,LRCH1_Q9Y2L9_251_VLVIPICFR (UniProt Q9Y2L9),-0.0985
14,LRRC58_Q96CX6_197_EIPPELGNLPSLNYLVLCDNK (UniProt Q96CX6),-0.185
15,LPCAT1_Q8NF37_211_WPQIMIFPEGTCTNR (UniProt Q8NF37),-0.00321
16,LIMS1_P48059_164_NDPYHPDHFNCANCGK (UniProt P48059),-0.0626
17,LIG3_P49916_929_AADETLCQTK (UniProt P49916),-0.117
18,LRRC47_Q8N1G4_60_LFTLPLLHYLEVSGCGSLR (UniProt Q8N1G4),0.0441
